We go through 2 molecules from publication PMC4198130.

These are yes or no findings as the source states them, for the method shown. For some of these results: Binding can be weak; no strength is given. For some of these results: Tags and fused reporters may be left off the sequences shown. For some of these results: In cells and extracts the contact can be indirect.

Assay [1] deals with GST fusion of the SH3 domain of spectrin (Panomics) (human). Put plainly: pull-down; GST fusions of SH3 or WW domains on glutathione sepharose beads, incubated with detergent-solubilized (2% TX-100) rat brain extract, RT 60 min; bound VGLUT1 by immunoblot, band intensity normalised to lysate; only the target purified. On the technique in general: In western blotting, separated proteins are transferred to a membrane and probed.

Assay [2] has as its target GST fusion of an SH3 domain of intersectin (SH3 domain array) (human). Put plainly: peptide or protein array; TranSignal SH3 and WW Domain Arrays (Panomics/Affymetrix): purified GST fusions of human SH3 or WW domains immobilised on a membrane, in duplicate at 100 ng; His-PP1 in solution, detected with anti-His antibody (methods: purified His-PP1; results and legend: bacterial extract with the tagged protein); both purified.

Assay [3] has as its target GST fusion of the SH3 domain of endophilin (SH3 domain array) (human). Described as above.
Assay [4] addresses GST fusion of the SH3 domain of spectrin (Panomics) (human). Described as above.

B1: VGLUT1 from rat brain extract (protein, UniProt Q62634 1-560)
chain: MEFRQEEFRKLAGRALGRLHRLLEKRQEGAETLELSADGRPVTTHTRDPPVVDCTCFGLPRRYIIAIMSGLGFCISFGIRCNLGVAIVSMVNNSTTHRGGHVVVQKAQFNWDPETVGLIHGSFFWGYIVTQIPGGFICQKFAANRVFGFAIVATSTLNMLIPSAARVHYGCVIFVRILQGLVEGVTYPACHGIWSKWAPPLERSRLATTAFCGSYAGAVVAMPLAGVLVQYSGWSSVFYVYGSFGIFWYLFWLLVSYESPALHPSISEEERKYIEDAIGESAKLMNPVTKFNTPWRRFFTSMPVYAIIVANFCRSWTFYLLLISQPAYFEEVFGFEISKVGLVSALPHLVMTIIVPIGGQIADFLRSRHIMSTTNVRKLMNCGGFGMEATLLLVVGYSHSKGVAISFLVLAVGFSGFAISGFNVNHLDIAPRYASILMGISNGVGTLSGMVCPIIVGAMTKHKTREEWQYVFLIASLVHYGGVIFYGVFASGEKQPWAEPEEMSEEKCGFVGHDQLAGSDESEMEDEVEPPGAPPAPPPSYGATHSTVQPPRPPPPVRDY
Regarding B1, in assay [1], the binding entry was “no binding”.

B2: His-tagged VGLUT1 C-terminal peptide (amino acids 513-549) (domain or fragment, UniProt Q62634 513-549)
chain: HDQLAGSDESEMEDEVEPPGAPPAPPPSYGATHSTVQ
B2: the binding result in assay [2], in assay [3] and in assay [4] was “binds” in each case.
